Paper doi:10.1101/2024.09.22.614354 (bioRxiv, 2024)
No constants are given. Whether binding was seen depends on the method and setting. Some results given as binding are weak or reduced against the parent protein; the word gives no strength. Where no end group is shown, it is not given here. TMR = tetramethyl rhodamine dye

Biological target: TMR-E2F1^TD (peptide of the E2F1 transactivation domain, N-labeled with tetramethyl rhodamine)
Test: fluorescence polarisation

Row | Binder | binding
1 | Rb^P A488V (domain or fragment, UniProt P06400 380-788) NTIQQLMMILNSASDQPSENLISYFNNCTVNPKESILKRVKDIGYIFKEKFAKAVGQGCVEIGSQRYKLGVRLYYRVMESMLKSEEERLSIQNFSKLLNDNIFHMSLLVCALEVVMATYSRSTSQNLDSGTDLSFPWILNVLNLKAFDFYKVIESFIKAEGNLTREMIKHLERCEHRIMESLAWLSDSPLFDLIKQSKDREGPTDHLESACPLNLPLQNNHTAADMYLSPVRSPKKKGSTTRVNSTANAETQATSAFQTQKPLKSTSLSLFYKKVYRLAYLRLNTLCERLLSEHPELEHIIWTLFQHTLQNEYELMRDRHLDQIMMCSMYGICKVKNIDLKFKIIVTAYKDLPHAVQETFKRVLIKEEEYDSIIVFYNSVFMQRLKTNILQYASTRPPTLSPIPHIPRS | binds
2 | Rb^P A490T (domain or fragment, UniProt P06400 380-788) NTIQQLMMILNSASDQPSENLISYFNNCTVNPKESILKRVKDIGYIFKEKFAKAVGQGCVEIGSQRYKLGVRLYYRVMESMLKSEEERLSIQNFSKLLNDNIFHMSLLACTLEVVMATYSRSTSQNLDSGTDLSFPWILNVLNLKAFDFYKVIESFIKAEGNLTREMIKHLERCEHRIMESLAWLSDSPLFDLIKQSKDREGPTDHLESACPLNLPLQNNHTAADMYLSPVRSPKKKGSTTRVNSTANAETQATSAFQTQKPLKSTSLSLFYKKVYRLAYLRLNTLCERLLSEHPELEHIIWTLFQHTLQNEYELMRDRHLDQIMMCSMYGICKVKNIDLKFKIIVTAYKDLPHAVQETFKRVLIKEEEYDSIIVFYNSVFMQRLKTNILQYASTRPPTLSPIPHIPRS | binds
3 | Rb^P A490V (domain or fragment, UniProt P06400 380-788) NTIQQLMMILNSASDQPSENLISYFNNCTVNPKESILKRVKDIGYIFKEKFAKAVGQGCVEIGSQRYKLGVRLYYRVMESMLKSEEERLSIQNFSKLLNDNIFHMSLLACVLEVVMATYSRSTSQNLDSGTDLSFPWILNVLNLKAFDFYKVIESFIKAEGNLTREMIKHLERCEHRIMESLAWLSDSPLFDLIKQSKDREGPTDHLESACPLNLPLQNNHTAADMYLSPVRSPKKKGSTTRVNSTANAETQATSAFQTQKPLKSTSLSLFYKKVYRLAYLRLNTLCERLLSEHPELEHIIWTLFQHTLQNEYELMRDRHLDQIMMCSMYGICKVKNIDLKFKIIVTAYKDLPHAVQETFKRVLIKEEEYDSIIVFYNSVFMQRLKTNILQYASTRPPTLSPIPHIPRS | binds
4 | Rb^P T738I (domain or fragment, UniProt P06400 380-788) NTIQQLMMILNSASDQPSENLISYFNNCTVNPKESILKRVKDIGYIFKEKFAKAVGQGCVEIGSQRYKLGVRLYYRVMESMLKSEEERLSIQNFSKLLNDNIFHMSLLACALEVVMATYSRSTSQNLDSGTDLSFPWILNVLNLKAFDFYKVIESFIKAEGNLTREMIKHLERCEHRIMESLAWLSDSPLFDLIKQSKDREGPTDHLESACPLNLPLQNNHTAADMYLSPVRSPKKKGSTTRVNSTANAETQATSAFQTQKPLKSTSLSLFYKKVYRLAYLRLNTLCERLLSEHPELEHIIWTLFQHTLQNEYELMRDRHLDQIMMCSMYGICKVKNIDLKFKIIVTAYKDLPHAVQEIFKRVLIKEEEYDSIIVFYNSVFMQRLKTNILQYASTRPPTLSPIPHIPRS | binds
5 | Rb^P K462E (domain or fragment, UniProt P06400 380-788) NTIQQLMMILNSASDQPSENLISYFNNCTVNPKESILKRVKDIGYIFKEKFAKAVGQGCVEIGSQRYKLGVRLYYRVMESMLESEEERLSIQNFSKLLNDNIFHMSLLACALEVVMATYSRSTSQNLDSGTDLSFPWILNVLNLKAFDFYKVIESFIKAEGNLTREMIKHLERCEHRIMESLAWLSDSPLFDLIKQSKDREGPTDHLESACPLNLPLQNNHTAADMYLSPVRSPKKKGSTTRVNSTANAETQATSAFQTQKPLKSTSLSLFYKKVYRLAYLRLNTLCERLLSEHPELEHIIWTLFQHTLQNEYELMRDRHLDQIMMCSMYGICKVKNIDLKFKIIVTAYKDLPHAVQETFKRVLIKEEEYDSIIVFYNSVFMQRLKTNILQYASTRPPTLSPIPHIPRS | binds
6 | Rb^P I703V (domain or fragment, UniProt P06400 380-788) NTIQQLMMILNSASDQPSENLISYFNNCTVNPKESILKRVKDIGYIFKEKFAKAVGQGCVEIGSQRYKLGVRLYYRVMESMLKSEEERLSIQNFSKLLNDNIFHMSLLACALEVVMATYSRSTSQNLDSGTDLSFPWILNVLNLKAFDFYKVIESFIKAEGNLTREMIKHLERCEHRIMESLAWLSDSPLFDLIKQSKDREGPTDHLESACPLNLPLQNNHTAADMYLSPVRSPKKKGSTTRVNSTANAETQATSAFQTQKPLKSTSLSLFYKKVYRLAYLRLNTLCERLLSEHPELEHIIWTLFQHTLQNEYELMRDRHLDQVMMCSMYGICKVKNIDLKFKIIVTAYKDLPHAVQETFKRVLIKEEEYDSIIVFYNSVFMQRLKTNILQYASTRPPTLSPIPHIPRS | binds
7 | Rb^P D697E (domain or fragment, UniProt P06400 380-788) NTIQQLMMILNSASDQPSENLISYFNNCTVNPKESILKRVKDIGYIFKEKFAKAVGQGCVEIGSQRYKLGVRLYYRVMESMLKSEEERLSIQNFSKLLNDNIFHMSLLACALEVVMATYSRSTSQNLDSGTDLSFPWILNVLNLKAFDFYKVIESFIKAEGNLTREMIKHLERCEHRIMESLAWLSDSPLFDLIKQSKDREGPTDHLESACPLNLPLQNNHTAADMYLSPVRSPKKKGSTTRVNSTANAETQATSAFQTQKPLKSTSLSLFYKKVYRLAYLRLNTLCERLLSEHPELEHIIWTLFQHTLQNEYELMRERHLDQIMMCSMYGICKVKNIDLKFKIIVTAYKDLPHAVQETFKRVLIKEEEYDSIIVFYNSVFMQRLKTNILQYASTRPPTLSPIPHIPRS | binds
8 | Rb^P L550I (domain or fragment, UniProt P06400 380-788) NTIQQLMMILNSASDQPSENLISYFNNCTVNPKESILKRVKDIGYIFKEKFAKAVGQGCVEIGSQRYKLGVRLYYRVMESMLKSEEERLSIQNFSKLLNDNIFHMSLLACALEVVMATYSRSTSQNLDSGTDLSFPWILNVLNLKAFDFYKVIESFIKAEGNLTREMIKHIERCEHRIMESLAWLSDSPLFDLIKQSKDREGPTDHLESACPLNLPLQNNHTAADMYLSPVRSPKKKGSTTRVNSTANAETQATSAFQTQKPLKSTSLSLFYKKVYRLAYLRLNTLCERLLSEHPELEHIIWTLFQHTLQNEYELMRDRHLDQIMMCSMYGICKVKNIDLKFKIIVTAYKDLPHAVQETFKRVLIKEEEYDSIIVFYNSVFMQRLKTNILQYASTRPPTLSPIPHIPRS | binds
9 | Rb^P E539D (domain or fragment, UniProt P06400 380-788) NTIQQLMMILNSASDQPSENLISYFNNCTVNPKESILKRVKDIGYIFKEKFAKAVGQGCVEIGSQRYKLGVRLYYRVMESMLKSEEERLSIQNFSKLLNDNIFHMSLLACALEVVMATYSRSTSQNLDSGTDLSFPWILNVLNLKAFDFYKVIESFIKADGNLTREMIKHLERCEHRIMESLAWLSDSPLFDLIKQSKDREGPTDHLESACPLNLPLQNNHTAADMYLSPVRSPKKKGSTTRVNSTANAETQATSAFQTQKPLKSTSLSLFYKKVYRLAYLRLNTLCERLLSEHPELEHIIWTLFQHTLQNEYELMRDRHLDQIMMCSMYGICKVKNIDLKFKIIVTAYKDLPHAVQETFKRVLIKEEEYDSIIVFYNSVFMQRLKTNILQYASTRPPTLSPIPHIPRS | binds
10 | Rb^P M695I (domain or fragment, UniProt P06400 380-788) NTIQQLMMILNSASDQPSENLISYFNNCTVNPKESILKRVKDIGYIFKEKFAKAVGQGCVEIGSQRYKLGVRLYYRVMESMLKSEEERLSIQNFSKLLNDNIFHMSLLACALEVVMATYSRSTSQNLDSGTDLSFPWILNVLNLKAFDFYKVIESFIKAEGNLTREMIKHLERCEHRIMESLAWLSDSPLFDLIKQSKDREGPTDHLESACPLNLPLQNNHTAADMYLSPVRSPKKKGSTTRVNSTANAETQATSAFQTQKPLKSTSLSLFYKKVYRLAYLRLNTLCERLLSEHPELEHIIWTLFQHTLQNEYELIRDRHLDQIMMCSMYGICKVKNIDLKFKIIVTAYKDLPHAVQETFKRVLIKEEEYDSIIVFYNSVFMQRLKTNILQYASTRPPTLSPIPHIPRS | binds
11 | Rb^P A490S (domain or fragment, UniProt P06400 380-788) NTIQQLMMILNSASDQPSENLISYFNNCTVNPKESILKRVKDIGYIFKEKFAKAVGQGCVEIGSQRYKLGVRLYYRVMESMLKSEEERLSIQNFSKLLNDNIFHMSLLACSLEVVMATYSRSTSQNLDSGTDLSFPWILNVLNLKAFDFYKVIESFIKAEGNLTREMIKHLERCEHRIMESLAWLSDSPLFDLIKQSKDREGPTDHLESACPLNLPLQNNHTAADMYLSPVRSPKKKGSTTRVNSTANAETQATSAFQTQKPLKSTSLSLFYKKVYRLAYLRLNTLCERLLSEHPELEHIIWTLFQHTLQNEYELMRDRHLDQIMMCSMYGICKVKNIDLKFKIIVTAYKDLPHAVQETFKRVLIKEEEYDSIIVFYNSVFMQRLKTNILQYASTRPPTLSPIPHIPRS | binds
12 | Rb^P E492Q (domain or fragment, UniProt P06400 380-788) NTIQQLMMILNSASDQPSENLISYFNNCTVNPKESILKRVKDIGYIFKEKFAKAVGQGCVEIGSQRYKLGVRLYYRVMESMLKSEEERLSIQNFSKLLNDNIFHMSLLACALQVVMATYSRSTSQNLDSGTDLSFPWILNVLNLKAFDFYKVIESFIKAEGNLTREMIKHLERCEHRIMESLAWLSDSPLFDLIKQSKDREGPTDHLESACPLNLPLQNNHTAADMYLSPVRSPKKKGSTTRVNSTANAETQATSAFQTQKPLKSTSLSLFYKKVYRLAYLRLNTLCERLLSEHPELEHIIWTLFQHTLQNEYELMRDRHLDQIMMCSMYGICKVKNIDLKFKIIVTAYKDLPHAVQETFKRVLIKEEEYDSIIVFYNSVFMQRLKTNILQYASTRPPTLSPIPHIPRS | binds
13 | Rb^P E533K (domain or fragment) NTIQQLMMILNSASDQPSENLISYFNNCTVNPKESILKRVKDIGYIFKEKFAKAVGQGCVEIGSQRYKLGVRLYYRVMESMLKSEEERLSIQNFSKLLNDNIFHMSLLACALEVVMATYSRSTSQNLDSGTDLSFPWILNVLNLKAFDFYKVIKSFIKAEGNLTREMIKHLERCEHRIMESLAWLSDSPLFDLIKQSKDREGPTDHLESACPLNLPLQNNHTAADMYLSPVRSPKKKGSTTRVNSTANAETQATSAFQTQKPLKSTSLSLFYKKVYRLAYLRLNTLCERLLSEHPELEHIIWTLFQHTLQNEYELMRDRHLDQIMMCSMYGICKVKNIDLKFKIIVTAYKDLPHAVQETFKRVLIKEEEYDSIIVFYNSVFMQRLKTNILQYASTRPPTLSPIPHIPRS | binds
